Measured values: PubChem BioAssay AID743402 (Broad Institute, 2014)
The whole screen tested about 1,200 compounds, of which about 140 (12%) were called active.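 The calls were made as follows: active = fitted curve falls past -35% activity change at a dose under twice the top valid dose, in every replicate test; inconclusive = replicate tests disagree on the call; inactive = the rest, including activity in the opposite direction.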 The list lacks most of the strong results.

experiment: CFTR-F508del correctors, dose response, FRT cells, YFP quenching, cherry-pick (AID 743402); conditions: FRT CFTR-F508del YFP iodide quenching, 24 h, channel opened with forskolin and a potentiator; at 26 µM (top of the series) unless noted;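 also: compounds act as correctors raising surface CFTR-F508del before acute activation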

Activity change, negative = more quenching (active), inactive:
Cc1cccc(CC(=O)Nc2cccnc2)c1 9.79%, c1coc(-c2nc3ccccc3s2)c1 9.38%, NS(=O)(=O)c1ccc(S(=O)(=O)N(CCc2ccccc2)Cc2ccccn2)cc1 0%, O=C(C1CCCCC1)N1CC(=O)N2[C@@H](CO)[C@H](c3ccc(C#Cc4cccc(F)c4)cc3)[C@@H]2C1 -14.3%, O=C(CCNS(=O)(=O)c1cccc(C(F)(F)F)c1)NC1CC1 0.208%, CCOC(=O)c1cnc(COc2ccc(OC)cc2)[nH]c1=O 18.7%, O=C(C[C@@H]1CC[C@@H]2[C@H](COC[C@H](O)CN2Cc2ccc(Oc3ccccc3)cc2)O1)N1CCN(c2ccccc2)CC1 -7.14%, COc1ccc(-c2ccc3oc(-c4ccc(OC)cc4)c(C#CCO)c3c2)cc1 1.61%, COc1ccc(CCNc2c3ccccc3nc3ccccc23)cc1OC -2.92%, CC(C(=O)O)N(C(=O)c1ccccc1)c1ccc(F)cc1 (centres undefined) 6.67%, CCc1nc(C)cn1S(=O)(=O)c1ccc2c(c1)OCCO2 0%, CC(=O)O[C@H]1C(=O)[C@@]2(C)C([C@H](OC(=O)c3ccccc3)[C@]3(O)C[C@H](OC(=O)[C@H](O)[C@@H](NC(=O)c4ccccc4)c4ccccc4)C(C)=C1C3(C)C)[C@]1(OC(C)=O)CO[C@@H]1C[C@H]2O (some centres undefined) 6.97%, COc1ccc(C(=O)c2cc([N+](=O)[O-])ccc2N2CCOCC2)cc1 -5.42%, CC(C)c1ccc(CN2CCN(S(=O)(=O)c3ccc(Cl)s3)CC2)cc1 10%, CC(=Nc1ccccc1O)c1sc2ccccc2c1O 6.46%, COc1ccc2c3c(n(C)c2c1)[C@H](CO)NCC31CCN(Cc2cc(-c3ccccc3)on2)CC1 -12.3%, CC(C)Oc1ccc(S(=O)(=O)N2CCOCC2)cc1NC(=O)CCCSc1ccccc1 6.46%, COc1ccc(-c2cc(NC=O)c3ncc(-c4ccc(OC)c(OC)c4)n3c2)cc1 -16.7%, CC1(C)CCN2CCC(C)(C)c3c(O)ccc1c32 -23.7%, COc1nc(-c2ccccc2)cc(-c2ccc3c(c2)OCO3)c1C#N 0%, C[C@@H]1CN([C@H](C)CO)S(=O)(=O)c2ccc(C#Cc3cccc(F)c3)cc2O[C@@H]1CN(C)C(=O)NC1CCCCC1 27.6%, CC1C2CCC(C2)C1OC(=O)c1ccccc1C(=O)O (centres undefined) -6.25%, COc1ccc2cc(CN(CC3CCCO3)C(=S)Nc3ccccc3)c(=O)[nH]c2c1 (centres undefined) 12.9%, COc1ccc(OC)c(-c2cc(-c3cccnc3)nc(N)c2C#N)c1 -6.97%, COc1ccc(/C=N/NC(=S)Nc2ccccc2[N+](=O)[O-])cc1O -10.7%, NS(=O)(=O)c1ccc2nc(NC(=O)c3ccc4c(c3)OCCO4)sc2c1 0%, CCN(CC)CCn1c2c(c(SCC(=O)Nc3ccc(F)c(F)c3)nc1=O)CCC2 12.9%, CN(C(=O)c1ccccc1OC1CCN(S(C)(=O)=O)CC1)C1CCOC1 (centres undefined) 6.46%, CCOC(=O)c1cc2c(=Cc3ccc(N(C)C)cc3)c3ccccc3n2[n+]1C 1.61%, O=C1CCC(CCc2nc3ccccc3[nH]2)(c2ccccc2)C(=O)N1 (centres undefined) 6.67%, COC(=O)c1ccsc1NC(=O)c1ccccc1 3.33%, CC(C)c1nc2oc3c(NCCO)ncnc3c2c2c1COC(C)(C)C2 0%, Cc1cc(C(=O)N/N=C/c2ccc(N(C)C)cc2)c2ccccc2n1 0%, CC(=O)N(C)C[C@@H]1Oc2cc(C#Cc3ccc(F)cc3)ccc2S(=O)(=O)N([C@H](C)CO)C[C@@H]1C 3.57%, C[C@H](CO)N1C[C@H](C)[C@H](CN(C)Cc2ccc(Cl)c(Cl)c2)Oc2ccc(NC(=O)C3CCCCC3)cc2CC1=O 13.8%, O=C(N/N=C\c1c(O)ccc2ccccc12)c1cncc(Br)c1 -33.3%, CN(C)CCCN(C(=O)c1ccco1)c1nc(-c2ccc(Cl)cc2)cs1 -3.85%, O=C(NC1CCCCC1)c1cc(C2CC2)nn1-c1ccccc1 25.8%, CCOC(=O)c1nc(C)sc1-c1ccnn1S(=O)(=O)c1ccccc1C(F)(F)F 12.9%, COc1ccc(CC(=O)NC(c2ccccc2)c2ccc(C)cc2)c(OC)c1 (centres undefined) 18.8%, CCCCc1nc(Cl)c(CO)n1Cc1ccc(-c2ccccc2-c2nn[nH]n2)cc1 0%, O=C(NCCC1CCCCN1S(=O)(=O)c1cccs1)C(=O)Nc1ccc(F)cc1F (centres undefined) -6.67%, Cn1cnc2nc[nH]c2c1=S 3.85%, c1ccc(-c2csc(NC3=NCCCCC3)n2)cc1 17.9%, COc1ccc(COc2cc(-c3cccc(OC)c3)nc3ccc(NC(=O)c4ccc(OC)cc4)cc23)cc1 -3.33%, O=C(NCCOc1ccccc1)c1cc([N+](=O)[O-])ccc1N1CCOCC1 9.38%, CC(=O)Nc1ccc(-c2csc(NC(=O)CN3C(=O)NC4(CCCC4)C3=O)n2)cc1 6.67%, N#CC1=C(N)Oc2c(ccc3cccnc23)C1c1ccccc1 (centres undefined) 6.46%, Cc1ccc(-c2ccc3c(c2)O[C@H](CN(C)C(=O)Nc2ccc(F)cc2)[C@@H](C)CN([C@@H](C)CO)S3(=O)=O)cc1 17.1%, Cc1cc(C)nc(N(C#N)Cc2cccc(Cl)c2)n1 0%, CCSC(=O)N1c2ccc(OC)cc2C=CC1C#N (centres undefined) -3.12%, COc1ccccc1NS(=O)(=O)c1ccc(C)c(C(=O)Nc2cc(C)on2)c1 18.8%, O=C(c1ccc2ccccc2c1)N1CCN(Cc2ccccc2)CC1 9.79%, CNS(=O)(=O)c1cccc(C(=O)OCC(=O)c2cc(C)n(CC3CCCO3)c2C)c1 (centres undefined) 16.4%, O=C(O)COC(=O)Cc1ccccc1Nc1c(Cl)cccc1Cl 3.12%, CSc1ccccc1NC(=O)COC(=O)CCC(=O)c1ccc(F)cc1 3.33%, COc1ccc(C2=NOC(C(=O)NCc3ccc(F)cc3)C2)cc1OC (centres undefined) 12.9%, Cc1ccc(CNC(=O)c2ccc3c(=O)c(O)c(-c4ccc(C)cc4)[nH]c3c2)cc1 3.54%, O=C(c1cccc(F)c1)N1CC[C@@H]2[C@H](CO)Nc3ccc(-c4ccccc4F)cc3[C@@H]21 3.12% [at 23.5 µM], Cc1cccc(N2CCN(C(=O)c3c(-c4ccccc4Cl)noc3C)CC2)c1C 9.13%, COc1cc2c(-c3ccccc3)c(C)oc2cc1/C=N/NC(N)=S -6.67%, Cc1cc2c(cc1S(=O)(=O)Nc1ccc(F)cc1)n(C)c(=O)c(=O)n2C -0.721%, COc1ccc2[nH]c(C(=O)N/N=C/c3ccc(O)cc3O)cc2c1 6.25%, Nc1ccn([C@@H]2O[C@H](C(=O)NCC(F)(F)F)[C@@H](O)[C@H]2O)c(=O)n1 3.33%, O=C(CCC(=O)N1CCOc2ccc(Cl)cc21)N1CCN(c2ccccn2)CC1 12.5%, COc1cccc(N2CCN(C(=O)c3ccc(CS(=O)c4ccc(Cl)cc4)o3)CC2)c1 (centres undefined) 0%, Cn1nc(C(=O)NNC(=O)CCOc2ccc(C(C)(C)C)cc2)c2ccccc2c1=O 0%, CCC1=Nc2cc(C(=O)NCc3cccnc3)ccc2Sc2ccc(C)cc21 -14.7%, CC(=O)O[C@H]1C(=O)[C@@]2(C)[C@H]([C@H](OC(=O)c3ccccc3)[C@]3(O)C[C@H](OC(=O)[C@H](O)C(NC(=O)c4ccccc4)c4ccccc4)C(C)=C1C3(C)C)[C@]1(OC(C)=O)CO[C@@H]1C[C@@H]2O (some centres undefined) 12.9%, Cc1noc(C)c1COc1ccc(C(=O)N2CCN(S(=O)(=O)c3ccc(F)cc3)CC2)cc1 11.1%, CCOc1ccc(C(=O)O/N=C(\N)c2ccccn2)cc1 18.4%, COC(=O)c1cc(C(=O)N2CCN(c3cccc(Cl)c3)CC2)cc([N+](=O)[O-])c1 -3.33%, COc1ccc(C2=Nn3c(nnc3-c3ccccc3F)SC2)cc1OC1CCCC1 -4.84%, O=C1NC(Cc2ccc(O)cc2)c2nc3ccc(Br)cc3c(=O)n2-c2cc3ccccc3cc21 (centres undefined) 3.33%, O=C1c2ccc3c4c(ccc(c24)C(=O)N1CCCCO)C(=O)N(CCCCO)C3=O -31.2%, COc1ccc(S(=O)(=O)Nc2ccc3c(c2)C(=O)N([C@H](C)CO)C[C@@H](C)[C@@H](CN(C)Cc2ccc(C(F)(F)F)cc2)O3)cc1 3.33%, COc1ccccc1OCCNC(=O)CCNC(=O)c1ccccc1OC -3.33%, COc1cc(Nc2c3c(nc4ccccc24)CCC3)cc(OC)c1OC -16%, O=C(N/N=C/c1c(O)ccc2ccccc12)c1ccc(Br)o1 -7.69%, O=S(=O)(c1ccc(Br)cc1)N1CCCc2ccccc21 12.9%, O=C(CN(Cc1ccco1)Cc1ccco1)Nc1cc(S(=O)(=O)N2CCCCC2)ccc1Cl 10%, COc1ccc(-c2c(C)cc3oc(=O)cc(-c4ccccc4)c3c2C)cc1OC -16%, Cc1nc(NCc2cccnc2)c2c3c(sc2n1)CCCC3 3.33%, COc1ccc(NC(=O)c2ccc(OCC3CCCO3)cc2)cc1OC (centres undefined) 8.99%
